{"source": "patent US20170137473A1", "about": "“FLUOROGEN ACTIVATING AND SHIFTING TAG (FAST)” (PARIS SCIENCES ET LETTRE - QUARTIER LATIN, priority 2014, published 2017)", "assay": "Cell-free protein synthesis (PURE system) followed by luminescence", "settings": "cell-free expression of mCherry-Y-FAST fusion"}
{"molecule": "Clone 3: best fluorescent HBR-binding PYP variant, SEQ ID NO: 3, residues 94-101 WMIPTSRG (protein, Functional derivative of SEQ ID NO: 48 - Clone 3) MEHVAFGSEDIENTLAKMDDGQLDGLAFGAIQLDGDGNILQYNAAEGDITGRDPKQVIGKNFFKDVAPGTDSPEFYGKFKEGVASGNLNTMFEWMIPTSRGPTKVKVHMKKALSGDSYWVFVKRV", "values": [{"measurement": "time of first detection of fluorescence after initiation of protein synthesis", "value": 10, "unit": "min"}, {"measurement": "time to reach saturation of fluorescence", "value": "≤ 90", "unit": "min"}]}
